Where two headings read alike, the source gives them in different places.

The text below walks through data of patent publication US8177896B2, “Antifouling furan-2-one derivatives” (The Hong Kong University of Science and Technology, priority 2008, dated 2012).

Data set [1] deals with Balanus amphitrite larvae. Put plainly: Larval settlement bioassay, barnacle Balanus amphitrite cyprids. The format is in vivo. The procedure:
The nauplii were reared in freshly filtered nature seawater (FSW, 0.45 μm, 32 S salinity) and fed with Chaetoceros gracilis Schutt at 24° C. in the Coastal Marine Laboratory the Hong Kong University of Science and Technology (HKUST). Cyprids were stored for 2 days at 8° C. (aged cyprids) prior to being used in the bioassays. Ten μl of each test sample dissolved in dimethyl sulfoxide (DMSO) were transferred into a well in 24-well polystyrene plate after the addition of 1 ml of FSW. The control wells contained 1 ml of FSW and 10 μl of DMSO. About 15 cyprids were added in each well with triplicate samples being tested.

A further data set concerns Bugula neritina larvae. Put plainly: Larval settlement bioassay, Bugula neritina.
For another data set, the system named is Hydroides elegans larvae. As to the kind of experiment: Larval settlement bioassay, Hydroides elegans competent larvae. In kind it is in vivo. As to the method: The 24-well plates were incubated at 28° C. for 24 h under a 15 h light/9 h dark photoperiod. The percentage of larval settlement and larval mortality was determined by counting the settled, live individuals under a dissecting microscope and expressing the result as a proportion of the total number of larvae in the well.

For `CC(CCCCCC1C=CC(=O)O1)C(C)OC1CCCCO1` (stereo not drawn) [Compound 5], the LC50/EC50 is given as greater than 27.8 in data set [1]; greater than 27.8 in data set [1] (listed as compound 5); greater than 15.6 with Bugula neritina larvae; greater than 15.6 in the data set with Hydroides elegans larvae; greater than 10.5 in the data set with Hydroides elegans larvae (listed as compound 5).
Take `CC(=O)C(C)CCCCCC1C=CC(=O)O1` (stereo not drawn) [Compound 3]: the LC50/EC50 is greater than 8.5 in data set [1] and greater than 17.9 with Hydroides elegans larvae.
With `CCCCCCCCC1C=CC(=O)O1` (stereo not drawn) [Compound 6, 5-octylfuran-2-one], the LC50/EC50 in data set [1] is greater than 97; in data set [1] (listed as compound 6) it was greater than 97; in the data set on Bugula neritina larvae it was greater than 250; in the data set on Bugula neritina larvae (listed as compound 6), greater than 119; with Hydroides elegans larvae, greater than 119; with Hydroides elegans larvae (listed as compound 6), greater than 250.
With `CCC(C)(O)CCCCCC1C=CC(=O)O1` (stereo not drawn) [Compound 1], the LC50/EC50 is greater than 5.9 in data set [1] and greater than 8.3 with Hydroides elegans larvae.
Molecule `CC(C)(O)CCCCCC1C=CC(=O)O1` (stereo not drawn) [Compound 4] had an LC50/EC50 in the data set on Hydroides elegans larvae greater than 16.7.
As for `CC(O)C(C)CCCCCC1C=CC(=O)O1` (stereo not drawn) [Compound 2], the LC50/EC50 in data set [1] is greater than 8.8; in the data set with Hydroides elegans larvae it was greater than 22.7.
